Some of the results follow.

Chains of the proteins cited; added tags and fusions are not shown.
UniProt Q0JBA9, entry or part of it: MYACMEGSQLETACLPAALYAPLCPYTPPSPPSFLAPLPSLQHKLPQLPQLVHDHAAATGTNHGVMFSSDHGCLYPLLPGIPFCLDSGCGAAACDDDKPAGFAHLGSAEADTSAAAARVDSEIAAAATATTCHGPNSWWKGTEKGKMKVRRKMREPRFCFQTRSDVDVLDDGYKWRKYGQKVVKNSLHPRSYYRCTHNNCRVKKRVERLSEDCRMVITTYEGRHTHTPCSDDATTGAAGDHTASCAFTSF

For this assay, the target named is OsWRKY34 (Oryza sativa, UniProt Q0JBA9 1-250). As to the kind of experiment: protein-binding microarray (RPBM); PBS, 2% BSA, 51.3 ng/ul salmon testes DNA, 50 uM zinc acetate, 200 nM TF, 25 C, 1 h; high values mean tight binding. The conditions noted are these: protein: recombinant; tags: N-terminal polyhistidine and DsRed monomer fusion (pET32a); label: CyDye5-dUTP incorporated in the synthesized complementary strand; 3' TTTTT single-stranded linker to array surface; dsDNA, one strand shown. Put shortly:
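An Axon 4000B scanner gave the binding signal as per-feature fluorescence intensity in arbitrary units. This followed washing of a custom Agilent array that had been incubated for 1 h at 25 °C with 200 nM protein in PBS, 2% BSA, salmon testes DNA and 50 µM zinc acetate. The proteins were transcription factors fused at the N-terminus to polyhistidine and DsRed, expressed in E. coli BL21-CodonPlus and purified on Ni–NTA.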
Regarding “GCTGATGGAGTTGCTACCACCGCTTCTATCGCCACGTGTCCGGAGTCACCTAGTGCAG”, the binding signal is 8780 fluorescence intensity (a.u.).

Turning to “GAGTTGAGGCATCATTGTATTCGGTTTTCACCGACCTCCACGGAGTCACCTAGTGCAG”, the binding signal was 8260 fluorescence intensity (a.u.).

Regarding “GTCAAATTCATTGTCTCTACTCTCTAGGCCATTCAGCTAGCGGAGTCACCTAGTGCAG”, the binding signal is 9150 fluorescence intensity (a.u.).

For “CTTTGCTTCGCTTATCGTAATTGCCCACGTGGCACACAGTCGGAGTCACCTAGTGCAG”, the binding signal was 10500 fluorescence intensity (a.u.).

As to “GGTTCCATGTTCTATCTGTGGACCTGGGGTTGGATGAATACGGAGTCACCTAGTGCAG”, the binding signal is 9640 fluorescence intensity (a.u.).

“TAGGTAGGAGTAGGAGTAGTGTGCCGTGAGTTTATCCACGCGGAGTCACCTAGTGCAG”: the binding signal is 9030 fluorescence intensity (a.u.).

For the sequence “TAGAACAAACCATTCACTGACATGTAGCTACAACTCGGTTCGGAGTCACCTAGTGCAG”, the binding signal was 8050 fluorescence intensity (a.u.).

Regarding “ACGAGCCCAGGATGAAGAGGTTTTGGGATGTGTTTTCTTACGGAGTCACCTAGTGCAG”, the binding signal is 8170 fluorescence intensity (a.u.).

On to “ATTATTTTGCTCTCCCTCCATTTTTTTCGGTCTCAATATTCGGAGTCACCTAGTGCAG”, for which the binding signal was 8410 fluorescence intensity (a.u.).

In the case of “AATCGAAACGCTCTCACGGGCTCACCATCAATTCGACGCACGGAGTCACCTAGTGCAG”, the binding signal was 9970 fluorescence intensity (a.u.).

For the sequence “GCACGATGCAGCCTCGTCGCCCAGCCGCCCCTACCTGCTTCGGAGTCACCTAGTGCAG”, the binding signal was 8440 fluorescence intensity (a.u.).

With “TTCGCCAGTCCGGTTTGCCGGCCTTGTGCGCTCGTCGTTTCGGAGTCACCTAGTGCAG”, the binding signal is 8140 fluorescence intensity (a.u.).

Take “ACCCCATCACGTGTTCCACACACCCGACCGCGACGCGTCGCGGAGTCACCTAGTGCAG”: the binding signal is 8420 fluorescence intensity (a.u.).

In the case of “CTTCTTCTTCGTCTTCCACCCATTGCTTCTTGCTTTCTTTCGGAGTCACCTAGTGCAG”, the binding signal is 11200 fluorescence intensity (a.u.).

Consider “CTCAGAGACTGCATCTCACCAAACCGCCATTAATTTACACCGGAGTCACCTAGTGCAG”, for which the binding signal was 10100 fluorescence intensity (a.u.).

As to “CTCTCACTCCCGAACGCAGACTAAGTCGCTTTTACTTTTTCGGAGTCACCTAGTGCAG”, the binding signal was 8240 fluorescence intensity (a.u.).

On to “TTGGTACTCACATCCACGCCACCTACTAATAACTAGTTAACGGAGTCACCTAGTGCAG”, for which the binding signal is 8560 fluorescence intensity (a.u.).

In the case of “GCGCCGAGGTCATTAGGCTTGACAGTCGACACCAATTACGCGGAGTCACCTAGTGCAG”, the binding signal is 9160 fluorescence intensity (a.u.).

As for “CAGCCTTATCATGTTACATTTTCAACTGCATTATTGTGTTCGGAGTCACCTAGTGCAG”, the binding signal is 9670 fluorescence intensity (a.u.).

Consider “TTATAAATTTGTAACCCACTGTTTTTCTCATTTCTCTTTTCGGAGTCACCTAGTGCAG”, for which the binding signal was 9790 fluorescence intensity (a.u.).

“ATCATGCTAATTACTCATAACTTAAGTCACAACACTTTGTCGGAGTCACCTAGTGCAG”: the binding signal is 9930 fluorescence intensity (a.u.).

As to “ACCGATGCCGACGTGCCATCCCTTTGTATCATTTCATTTCCGGAGTCACCTAGTGCAG”, the binding signal was 10800 fluorescence intensity (a.u.).

On to “TAAATATTAATTTTTCGTGCGGCCGTTAATTTGCCGTCAACGGAGTCACCTAGTGCAG”, for which the binding signal is 9170 fluorescence intensity (a.u.).

Consider “AGTTGTAATGTTGTTTCCTGTCTTCCATCTTGATTAATGTCGGAGTCACCTAGTGCAG”, for which the binding signal was 9180 fluorescence intensity (a.u.).

Consider “ACCGAATATACATTTGTCCGTATCCGGTCCTCTCCAACCTCGGAGTCACCTAGTGCAG”, for which the binding signal is 8720 fluorescence intensity (a.u.).

“TTCAATCTGTTGACCCTCGATATTTCATACGCGCGTGATACGGAGTCACCTAGTGCAG”: the binding signal is 8670 fluorescence intensity (a.u.).

Consider “TCTGCTACACGGCCGGTCTACCTCCGTCCTGCTTCTGGTTCGGAGTCACCTAGTGCAG”, for which the binding signal was 9120 fluorescence intensity (a.u.).

For the sequence “TAGACTATAAACCAAACACATACTCTCTTCGTTTCATATTCGGAGTCACCTAGTGCAG”, the binding signal is 8420 fluorescence intensity (a.u.).

On to “AGTTACCTTCTCTGCTTCAGATCACGTGTGCCACGTGTCCCGGAGTCACCTAGTGCAG”, for which the binding signal was 8390 fluorescence intensity (a.u.).

“GTATGTGTGTCTGGATTATTCCATAGTAGGATTTGCTAATCGGAGTCACCTAGTGCAG”: the binding signal is 8380 fluorescence intensity (a.u.).

“AGCCACTCCAGATCCAAAGACAACACCAGCAAGCAGCATTCGGAGTCACCTAGTGCAG”: the binding signal is 8240 fluorescence intensity (a.u.).

In the case of “TCGTCTTATCTCATACTTACGTAGTTGCGTTTTCATATAACGGAGTCACCTAGTGCAG”, the binding signal is 8520 fluorescence intensity (a.u.).

On to “ACCAGCCAGCACCGCCTCTATAAATACATACATGTTGCCACGGAGTCACCTAGTGCAG”, for which the binding signal was 8710 fluorescence intensity (a.u.).

As to “GTAGCAACATGCCGCATCTTCTTTTTTCGCTTATGTTTATCGGAGTCACCTAGTGCAG”, the binding signal was 14100 fluorescence intensity (a.u.).

As for “CCACCGCAAGTCTGCCGTGGTCACCGCGCCTTTTACTTTACGGAGTCACCTAGTGCAG”, the binding signal is 8450 fluorescence intensity (a.u.).

Take “TTTCTACTTTACTTCCTGTTCTTCACTATGTTTCAGAGATCGGAGTCACCTAGTGCAG”: the binding signal is 8790 fluorescence intensity (a.u.).

“CTGTTATGTTTGTTCCATTTGGAGCCTTGGCTGTTCATCCCGGAGTCACCTAGTGCAG”: the binding signal is 9260 fluorescence intensity (a.u.).

For “TGGAGTCCCTGCCGCCCATACTCTCCGCCCGCGCGATCCCCGGAGTCACCTAGTGCAG”, the binding signal was 10400 fluorescence intensity (a.u.).

Turning to “GTGCTACCTCCATCCCAATATACTTGTCGTTTTAAGTTTTCGGAGTCACCTAGTGCAG”, the binding signal was 11800 fluorescence intensity (a.u.).

In the case of “AGGAAGATAATTTAACACATACTTGTCGATCTCTATAATACGGAGTCACCTAGTGCAG”, the binding signal was 8250 fluorescence intensity (a.u.).

In the case of “CTCCACCACACATGCTTCAAGTGACTAGGAGGGCATCCTCCGGAGTCACCTAGTGCAG”, the binding signal was 8590 fluorescence intensity (a.u.).

Take “TGCTACTACTTGCTGTGTGTTTCTGAGGAAAATTTATTAGCGGAGTCACCTAGTGCAG”: the binding signal is 8770 fluorescence intensity (a.u.).

Turning to “CTCCCGTGTCCCATTTAAAACCTTCTTCTTCTTCTTCGCTCGGAGTCACCTAGTGCAG”, the binding signal is 8650 fluorescence intensity (a.u.).

As for “ATTTATTATTTTATATATTGGTGCATTTTATTCAAACTCACGGAGTCACCTAGTGCAG”, the binding signal was 8850 fluorescence intensity (a.u.).

Regarding “CCTCTCCGACTCCCGCCAATCCCATCCGTCCATCCATCTCCGGAGTCACCTAGTGCAG”, the binding signal was 9690 fluorescence intensity (a.u.).

In the case of “CTGTGTGTTGTTTCTTGTATCCTGTGCGTGGTCGGGTTAACGGAGTCACCTAGTGCAG”, the binding signal was 12700 fluorescence intensity (a.u.).

As to “AAGGACCCGTTCTATCTGGTTTTGCGGTTGAAGGATAGAACGGAGTCACCTAGTGCAG”, the binding signal is 28000 fluorescence intensity (a.u.).

For “CACCAATACTAGACACTAGCACAACATTATATTCTCTCTTCGGAGTCACCTAGTGCAG”, the binding signal was 8560 fluorescence intensity (a.u.).

In the case of “TCGCAGCCTCGCCTCTGAATCGCTCGCCGACTCGCGTTTTCGGAGTCACCTAGTGCAG”, the binding signal was 9630 fluorescence intensity (a.u.).

Regarding “CCCTCGGGTTCGACATCATCATACTACCATCGCCGCAGCCCGGAGTCACCTAGTGCAG”, the binding signal was 8250 fluorescence intensity (a.u.).

Regarding “ATTGTTGACACTATGACTTTCTTACTTTGACCGCAATTTTCGGAGTCACCTAGTGCAG”, the binding signal is 11800 fluorescence intensity (a.u.).

As for “AATAAATATCCCACCCATCCATCCACCCGAGGACACTACACGGAGTCACCTAGTGCAG”, the binding signal is 8740 fluorescence intensity (a.u.).

For “ACCATGTGCTCCGTTCTCTTGTCCTGCCTATCTATCTAACCGGAGTCACCTAGTGCAG”, the binding signal was 12400 fluorescence intensity (a.u.).

As to “GGCCAATCCACGCCTCCGAACAAGTAGCCCACTAGATCATCGGAGTCACCTAGTGCAG”, the binding signal was 10200 fluorescence intensity (a.u.).

Values taken from article PMC7819943, “Rice protein-binding microarrays: a tool to detect cis-acting elements near promoter regions in rice”.
